This is an account of results in patent publication US12729225B2, “Non-canonical SWI/SNF complex and uses thereof” (Dana-Farber Cancer Institute, Inc., priority 2018, dated 2026).

For the data set, the system named is mSWI/SNF complexes. The data set can be described thus: mSWI/SNF complex purification with HA-tagged baits and mass spectrometry (peptide counts). Further details: species or system human.
Setting [1] is: total peptide count of the co-purified protein, 293_HA-BRD9 (HA-BRD9 bait, mass spectrometry), Table 3b.
[2] abbreviates: unique peptide count of the co-purified protein, 293_HA-BRD9 (HA-BRD9 bait, mass spectrometry), Table 3b.

B1: PRDX1 (protein, UniProt Q06830 2-199, looked up)
Peroxiredoxin-1: SSGNAKIGHPAPNFKATAVMPDGQFKDISLSDYKGKYVVFFFYPLDFTFVCPTEIIAFSDRAEEFKKLNCQVIGASVDSHFCHLAWVNTPKKQGGLGPMNIPLVSDPKRTIAQDYGVLKADEGISFRGLFIIDDKGILRQITVNDLPVGRSVDETLRLVQAFQFTDKHGEVCPAGWKPGSDTIKPDVQKSKEYFSKQK
B1: the Total is 2 (293_HA-BRD7 bait purification, mass spectrometry, total peptides per co-purified protein) and 1 under setting [1]. In addition, the Unique was 2 (293_HA-BRD7 bait purification, mass spectrometry, unique peptides per co-purified protein) and 1 under setting [2].

B2: BCAR1 (protein, UniProt P56945 1-870, looked up)
Breast cancer anti-estrogen …: MNHLNVLAKALYDNVAESPDELSFRKGDIMTVLEQDTQGLDGWWLCSLHGRQGIVPGNRLKILVGMYDKKPAGPGPGPPATPAQPQPGLHAPAPPASQYTPMLPNTYQPQPDSVYLVPTPSKAQQGLYQVPGPSPQFQSPPAKQTSTFSKQTPHHPFPSPATDLYQVPPGPGGPAQDIYQVPPSAGMGHDIYQVPPSMDTRSWEGTKPPAKVVVPTRVGQGYVYEAAQPEQDEYDIPRHLLAPGPQDIYDVPPVRGLLPSQYGQEVYDTPPMAVKGPNGRDPLLEVYDVPPSVEKGLPPSNHHAVYDVPPSVSKDVPDGPLLREETYDVPPAFAKAKPFDPARTPLVLAAPPPDSPPAEDVYDVPPPAPDLYDVPPGLRRPGPGTLYDVPRERVLPPEVADGGVVDSGVYAVPPPAEREAPAEGKRLSASSTGSTRSSQSASSLEVAGPGREPLELEVAVEALARLQQGVSATVAHLLDLAGSAGATGSWRSPSEPQEPLVQDLQAAVAAVQSAVHELLEFARSAVGNAAHTSDRALHAKLSRQLQKMEDVHQTLVAHGQALDAGRGGSGATLEDLDRLVACSRAVPEDAKQLASFLHGNASLLFRRTKATAPGPEGGGTLHPNPTDKTSSIQSRPLPSPPKFTSQDSPDGQYENSEGGWMEDYDYVHLQGKEEFEKTQKELLEKGSITRQGKSQLELQQLKQFERLEQEVSRPIDHDLANWTPAQPLAPGRTGGLGPSDRQLLLFYLEQCEANLTTLTNAVDAFFTAVATNQPPKIFVAHSKFVILSAHKLVFIGDTLSRQAKAADVRSQVTHYSNLLCDLLRGIVATTKAAALQYPSPSAAQDMVERVKELGHSTQQFRRVLGQLAAA
In turn, B2 showed a Total (293_HA-BRD7: HA-BRD7 bait purification, total peptide count per co-purified protein) of 15 and a Total under setting [1] of 1. Moreover, the Unique runs as follows: (293_HA-BRD7: HA-BRD7 bait purification, unique peptide count per co-purified protein) 11; under setting [2], 1.

B3: GDPD3 (protein, UniProt Q7L5L3 1-318, looked up)
Lysophospholipase D GDPD3: MSLLLYYALPALGSYAMLSIFFLRRPHLLHTPRAPTFRIRLGAHRGGSGELLENTMEAMENSMAQRSDLLELDCQLTRDRVVVVSHDENLCRQSGLNRDVGSLDFEDLPLYKEKLEVYFSPGHFAHGSDRRMVRLEDLFQRFPRTPMSVEIKGKNEELIREIAGLVRRYDRNEITIWASEKSSVMKKCKAANPEMPLSFTISRGFWVLLSYYLGLLPFIPIPEKFFFCFLPNIINRTYFPFSCSCLNQLLAVVSKWLIMRKSLIRHLEERGVQVVFWCLNEESDFEAAFSVGATGVITDYPTALRHYLDNHGPAARTS
For B3, under setting [1], the Total amounted to 1. This molecule yielded a Unique under setting [2] of 1.
